Laboratory results from PubChem BioAssay AID1347423 (Functional Genomics Laboratory (NCATS/FGL), 2020).
Hit rate of the full screen: of about 52,000 sequences, about 210 (0.4%) were called active.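 Rule for the calls: active = gene whose silencing raises cell survival under the drug, median off-target-corrected z-score across its silencing RNAs 2 or more; inactive = the rest.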 The list shows a part of the results.

Experiment: Resistance to Poly (ADP-Ribose) Polymerase inhibitor: Gene Identification via Genome-wide siRNA Screen
Conditions: mouse BRCA2 R2336H ES cells, olaparib, CellTiter-Glo viability; hits give high values
Summary of the method: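 Mouse BRCA2 R2336H ES cells were reverse-transfected with siRNA (20 nM final), treated at 48 h with 500 nM olaparib, and read by CellTiter-Glo after 72 h. Scores: MAD-based z per siRNA, median per gene, seed off-target correction.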

| Sequence | z-score |
| --- | --- |
| GGGUGCUCUGGACAUGUUGTT against Dcxr | inactive: 0.539 |
| GGGUAUUAAGAGCCAACUGTT against 2400002F11Rik | inactive: -0.9 |
| GCAUCUACUCCCUAUAGACTT against Nin | inactive: 0.371 |
| UUCUACUGGGCUUAACCAGTT against Olfr1032 | inactive: 0.0145 |
| CCUCUUGAGGUCUCGUCAATT against 4930412F15Rik | inactive: 1.33 |
| GCCUGGAAUCUCUUCAUGUTT against Pde3a | inactive: -0.903 |
| GGUCUUCACUGUCGACUACTT against Cpne7 | inactive: -0.192 |
| CCAAUGGUGUGGUCUGUAATT against Olfr572 | inactive: -2.96 |
| GCAGUCUCACCUGAACAGATT against Spinlw1 | inactive: -0.0372 |
| GGACAUUUUAGUUGUCUUGTT against Slc38a4 | inactive: 0.422 |
| CCUGUAAAACAUUGUGAACTT against 1110013L07Rik | inactive: 0.269 |
| GCCCUAUAUAUCAUUCUAGTT against Rhoa | inactive: -0.352 |
| GGAAGACAUAUUAACUACUTT against Gpr37 | inactive: -0.148 |
| GGAUAAUUUUGGAAGCAGATT against Rheb | inactive: -1.57 |
| GCCAUACCUUCAACUGUCGTT against Ncoa2 | inactive: -1.27 |
| GCCACUGAAAGAUAAAGCATT against Mtap2 | inactive: 0.448 |
| GAAUAGAGUCAAUGGAUAUTT against F830003B07 | inactive: -1.03 |
| GGCUCUGUGGCAAUCUUGUTT against Olfr1225 | inactive: 0.562 |
| GGAAGAUAGGAGCUACAAATT against Mr1 | inactive: -1.38 |
| GGUGAGCUGAAAUGAGGUGTT against H2-DMb1 | inactive: -0.143 |
| GUCUAGAAUAAUUGGAGGATT against Klk27 | inactive: -0.63 |
| CGAUUCAGAUUGCACUUGUTT against Katnb1 | inactive: -0.226 |
| GCUAUGCUGAGGAAAAAAATT against 2310056K19Rik | inactive: -0.113 |

As entered above.
GGAUAAUUUUGGAAGCAGATT against Rheb | z-score: inactive: -1.57
GUCUAGAAUAAUUGGAGGATT against Klk27 | z-score: inactive: -0.63
GGGUGCUCUGGACAUGUUGTT against Dcxr | z-score: inactive: 0.539

More results:

| Sequence | z-score |
| --- | --- |
| GGUUUUUUACACAACAUGCTT against 1110067D22Rik | inactive: 0.0564 |
| GGAGGUCAUCAACGUGCUATT against Nucb1 | inactive: -0.492 |
| CGGUUUCUUACCAGCAAUUTT against Mgmt | inactive: -0.0333 |
| GGCAGCAAGGAAACUAUUATT against Kpna3 | inactive: -2.49 |
| GCAAGACGGUGAUUGUAACTT against 1810010O14Rik | inactive: -0.42 |
| GAAAGAAACGGCAGAUUGCTT against V2r12 | inactive: 0.475 |
| CGACACCAUUCAGAUUGAUTT against Rps4x | inactive: -1.06 |
| CGGCUAAGUUGUGCGAUGUTT against C79267 | inactive: -1.64 |
| GGACUUCUUCGAUUGUUCUTT against Chchd1 | inactive: -1.28 |
| CGAGAAGAUGUGUAUGUCGTT against Mkrn2 | inactive: -0.571 |
| GGCCUUUAUCCGGAACAUATT against Zfp454 | inactive: -0.429 |
| GCUUUUCAGUCUCAUAGUGTT against Huwe1 | inactive: -1.98 |
| GCGGUGACAUCAUGAUCCATT against Bop1 | inactive: -3.05 |
| GGGAUUAAUAUCAUACCGATT against Slc30a5 | inactive: 0.499 |
| GGAUCAAAUUCUACCUUAGTT against Tbc1d5 | inactive: -0.855 |
| GGAGUAUCUGCGUUAUCUUTT against Tsnaxip1 | inactive: 1.33 |
| GCGCGAUAGAUUUUGUUUATT against 2610524G09Rik | inactive: 0.614 |
| CCCAGCUGGCAUGAUCUUUTT against 0610038K03Rik | inactive: 0.0488 |
| GCCAAGAGUUUAGCACUUUTT against Acrbp | inactive: 0.00874 |
| GCCGCCCUUACCCUAUUUATT against Tceal1 | inactive: 0.539 |
| GGAAAGCUUCAGAAUCUAATT against Bckdk | inactive: 0.484 |
| GCCUAUGCACCUUACCUUUTT against Uble1a | inactive: 1.07 |
| GGAACUUGAGGUUUUCUGGTT against 4931427F14Rik | inactive: 0.26 |

| Sequence | z-score |
| --- | --- |
| GCAGAAGACAUCGUACCAATT against Mcm4 | inactive: -2.21 |
| CCAAAUGUUUCGUUAAACUTT against Trf | inactive: 0.881 |
| GCAGCUAGUGGUUUCUUUGTT against Stra6 | inactive: -0.319 |
| GCCCUGUACACGGUAAACUTT against Ccrl1 | inactive: 3.09 |
| GGAGUUUACUGAGUUUUAGTT against Prkaca | inactive: 1.17 |
| GUAUCAGUGCCAGAGCUACTT against Lor | inactive: 0.651 |
| CGUGUAAACGAAGUUAUCATT against 6030408C04Rik | inactive: 0.765 |
| GGAAAUGAAAACUUCUGUUTT against Nudt15 | inactive: -0.543 |
| GGGCAUAGUGACCAGGUUATT against Fgf14 | inactive: -0.94 |
| GGUAUGUUUGCAUCUUUUUTT against E130310K16Rik | inactive: 0.158 |
| GCGCAAUGACGAUAAACUCTT against Sema3f | inactive: 1.03 |
| CGAUAUGCAUGCGAAUAGATT against Zcchc5 | inactive: 0.0865 |
| GCUCAGACAGCUUCGACAUTT against Ngep | inactive: 0.676 |
| GGGAGGUUACUAUGGAGACTT against Mia | inactive: 0.00137 |
| GGACAGUUCUUACUUUACATT against Drd2 | inactive: -0.377 |
| CCAUGCUUGAGAGGAAUAATT against Hint3 | inactive: -2.48 |
| GGUGUAGCUGGAAUUGGCATT against AU022726 | inactive: -0.713 |
| GGAUAAUCGAAUUGAUUGUTT against D9Wsu20e | inactive: -0.142 |
| GGAGAAGUAAAACUCGAAGTT against Rwdd2 | inactive: 0.113 |
| GGACGACCUCAUUCUUUUUTT against Adn | inactive: 0.55 |
| GGGCGAGAUGCAUAAGGAUTT against Rohn | inactive: 1.81 |
